The campaign covered roughly 360,000 compounds. About 9,100 (2.5%) were called active. The shares of active, inactive and inconclusive entries below differ from those in the screen. Cut-off read from the data, not from the text of the source: active = max response below about -50%; inconclusive = no clear call, values can overlap the other calls; inactive = above that.
target: D(3) dopamine receptor (Homo sapiens) (UniProt P35462); experiment: qHTS of D3 Dopamine Receptor Antagonist: qHTS; conditions: D3R cells, DiscoveRx beta-arrestin luminescence, antagonist mode; hits give low values
Method in brief: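 Cells expressing the human receptor were seeded at 1500 cells/well, incubated overnight at 37 degrees C in 5% CO2, then exposed to library compounds with dopamine controls for 90 minutes at 37 degrees C before luminescent detection.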
% is set by controls: 0 for no effect and ±100 for the full control effect.

Sequences of proteins named here, by UniProt entry; tags and fusion partners are left off.
UniProt P35462, whole entry, looked up: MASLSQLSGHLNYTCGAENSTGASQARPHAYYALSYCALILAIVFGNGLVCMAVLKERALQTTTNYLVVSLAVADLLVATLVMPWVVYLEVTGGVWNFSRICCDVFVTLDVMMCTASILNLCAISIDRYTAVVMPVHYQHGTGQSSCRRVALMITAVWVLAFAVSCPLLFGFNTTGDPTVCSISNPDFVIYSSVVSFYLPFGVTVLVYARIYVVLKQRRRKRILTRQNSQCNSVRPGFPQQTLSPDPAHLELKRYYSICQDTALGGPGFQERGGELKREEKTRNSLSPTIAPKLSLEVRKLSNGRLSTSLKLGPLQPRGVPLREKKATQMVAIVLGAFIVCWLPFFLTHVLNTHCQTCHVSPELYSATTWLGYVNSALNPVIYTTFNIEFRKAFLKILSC

Row | Structure (SMILES) | max response, negative = inhibition
1 | Cc1ccc(C)c(OCC(O)CN2C(C)CCCC2C)c1 (stereo not given) | inconclusive: -46.9%
2 | CCN1CCN(c2nc3c(C)cccn3c(=O)c2/C=C(\C#N)S(=O)(=O)c2ccc(C)cc2)CC1 | inconclusive: -47.7%
3 | COc1ccc(/C=N/NC(=O)c2[nH]c3ccc(Br)cc3c2-c2ccccc2)c(C(=O)O)c1OC | inconclusive: -31.3%
4 | CCCCCCCCCC[N+](C)(C)CC/C=C1/c2ccccc2Sc2ccc(Cl)cc21 | active: -113%
5 | CCn1c2ccccc2c2cc(CNCCCN3CCOCC3)ccc21 | active: -100%
6 | COc1cc([N+](=O)[O-])ccc1NC(=O)C[n+]1ccccc1C | inconclusive: -31%
7 | CCOC(=O)C1(O)CSc2nc3sc(C(=O)O)c(C)c3c(=O)n21 (stereo not given) | inconclusive: -35.4%
8 | CCN1C(c2ccccc2)=C(c2ccccc2)S/C1=C/C=C1\SC(=S)N(C)C1=O | inactive: 13.1%
9 | Cc1ccc(Nc2nc(N)nc(CN3CCN(c4ccccc4)CC3)n2)cc1Cl | inactive: -7.15%
10 | O=[N+]([O-])c1cccnc1N1CCC(c2cc(-c3cccc(C(F)(F)F)c3)n[nH]2)CC1 | inconclusive: -38.2%
11 | COCCn1c(=NC(C)=O)sc2cc([N+](=O)[O-])ccc21 | inconclusive: -31.8%
12 | COc1ccccc1NC(=O)CCc1c(C)[nH]c(=O)c(C#N)c1C | inconclusive: -36.6%
13 | O=c1c2cn[nH]c2[nH]c(=S)n1-c1ccccc1F | inactive: 12.6%
14 | CCCCNC(=O)c1nc(C2CCN(S(=O)(=O)c3c(F)cccc3F)CC2)oc1-c1ccccc1 | inconclusive: -30.8%
15 | Cn1cc(C(=O)NCCN2CCN(c3cccc(Cl)c3)CC2)c2c3ccccc3n(C)c2c1=O | inactive: -20.2%
16 | O=C(/C=C/c1ccc(F)cc1)NC(=S)Nc1ccccc1O | inactive: -25.8%
17 | C[C@H]1CCC[C@@]2(O[C@@H](CCO)C[C@@H](O)[C@@H]2O)O1 | inactive: 9.44%
18 | CCC(CO)Oc1cc(NCc2cccc(Cl)c2)c2ncn(C(C)C)c2c1 (stereo not given) | inconclusive: -42.7%
19 | CCn1c(CNc2ccc(OC)cc2)nnc1SCC(=O)Nc1ccc(F)cc1 | inactive: -6.11%
20 | C[C@]12CCC(=O)C[C@@H]1CC[C@@H]1[C@@H]2CC[C@]2(C)C=CC[C@@H]12 | inactive: 18.7%
21 | O=C(CN1CCC(n2nnc3cc(F)ccc32)CC1)N1CCCc2ccccc21 | active: -53.7%
23 | Cc1ccc2c(c1)nnn2C1CCN(CC(=O)N2c3ccccc3CC2C)CC1 (stereo not given) | active: -70.2%
24 | Clc1cccc2c3c([nH]c12)CCNC3 | active: -60.1%
25 | CCOc1ccc(OCc2ccc(C(=O)OCc3ccccn3)o2)cc1 | inactive: 15.3%
26 | Oc1ccc(CN2CCCCC2)c2cccnc12 | inconclusive: -30.4%
27 | O=C(CN1C(=O)NC2(CCCc3ccccc32)C1=O)Nc1cccc(S(=O)(=O)N2CCCCC2)c1 (stereo not given) | inactive: -12.7%
28 | Cc1onc(-c2ccccc2)c1C(=O)OCC(=O)Nc1ccc(C#N)cc1 | inactive: 14.3%

Row | Structure (SMILES) | max response, negative = inhibition
29 | O=[N+]([O-])c1cc(CN2CCCCCC2)ccc1O | inconclusive: -36.4%
30 | O=C(Oc1ccc[nH]c1=O)c1cccc(Cl)c1 | inconclusive: -36.6%
31 | Cn1c(Oc2ccccc2NCc2cc(Br)ccc2O)cc(=O)n(C)c1=O | inconclusive: -43.1%
32 | COc1ccc(-c2nc(C(=O)NCCCN3CCOCC3)cc3c2[nH]c2ccccc23)cc1OC | inconclusive: -41.1%
33 | CCNC(=O)NC(=O)COC(=O)c1ccccc1SCC(=O)NC(=O)NCC | active: -74.7%
34 | COC(=O)c1ccc(CSC2=NC[C@@H]3[C@@H]4C(=O)N(C)C(=O)[C@@H]4[C@](Cc4ccccc4)(C(=O)OC)N23)cc1 | inconclusive: -38.7%
35 | CC(=O)C1=C(C)NC(C)=C(C(C)=O)C1c1ccc(-c2ccccc2Cl)o1 | inconclusive: -35.1%
36 | Cc1ccccc1-c1cnc(C(O)c2cccc(C)c2C)[nH]1 (stereo not given) | inconclusive: -40.3%
37 | C=CCC1NS(=O)(=O)OC2CCCC12 (stereo not given) | inconclusive: -45.6%
38 | Cc1ccc(C2CC(c3ccccc3)=NN2C(=S)Nc2ccccc2)o1 (stereo not given) | active: -51.1%
39 | Cc1ccc(S(=O)(=O)CCC(=O)OCC(=O)c2c[nH]c3ccccc23)cc1 | inactive: -13.3%
40 | Nc1ncnc2c1ncn2[C@@H]1O[C@H](C(=O)NS(=O)(=O)c2c(Cl)nc3sccn23)[C@@H](O)[C@H]1O | inactive: 24.3%
41 | OCCN1CCN(c2ncnc3c2c(-c2ccccc2)cn3-c2ccc(F)cc2)CC1 | active: -74.7%
42 | COc1ccc(NS(=O)(=O)c2ccc3c(c2)CCO3)cc1 | inactive: 3.99%
43 | COc1ccc(C(=S)N2CCN(c3cccc(Cl)c3)CC2)cc1 | inactive: -27.4%
44 | Cc1ccc(S(=O)(=O)N2c3ccccc3-c3c(ssc3=S)C2(C)C)cc1 | inconclusive: -40.4%
45 | Cc1cc(Cl)c(S(=O)(=O)N/N=C/c2ccc3c(c2)OCO3)c(Cl)c1 | inconclusive: -43%
46 | CCc1cn(C2CC(O)C(CO)O2)c(=O)[nH]c1=O (stereo not given) | inactive: 7.77%
47 | COC(=O)c1cc(=O)n(-c2ccc(F)cc2)c(=Nc2ccc(F)cc2)s1 | inconclusive: -30.1%
48 | CCOc1cc(N2CCOCC2)c(OCC)cc1NC(=O)Cn1[nH]c(=O)c2ccccc2c1=O | inconclusive: -31.7%
49 | COc1ccccc1N1CCN(C(=S)NC(=O)c2ccc([N+](=O)[O-])cc2)CC1 | inactive: 20.5%
50 | Cc1ccc(N2CCN(S(=O)(=O)c3ccc(F)cc3)CC2)c(C)c1 | active: -54.7%
51 | COc1ccc(OC)c(/C=N/NC(=O)CSc2nnc(C)n2-c2ccccc2)c1 | inconclusive: -49.8%
52 | S=C(Nc1ccc(Cl)cc1)Nc1cccc2cnccc12 | inconclusive: -49.2%
53 | Cc1ccc(OCC(=O)Nc2ccc(S(=O)(=O)N3CCOCC3)cc2)c(Br)c1 | inconclusive: -30.2%
54 | COc1ccc(S(=O)(=O)N2CCN(CC(=O)Nc3cccc(OC)c3)CC2)cc1 | inactive: -11.3%
55 | COc1ccc2nc(NC(=O)CSC3=NCCS3)sc2c1 | inconclusive: -36.4%

From PubChem BioAssay AID652054 (National Center for Advancing Translational Sciences (NCATS), 2013)
